Article PMC11589570, “Critical assessment of LC3/GABARAP ligands used for degrader development and ligandability of LC3/GABARAP binding pockets” (Nature Communications, 2024)
Where “and” joins values, the source holds several entries; their conditions need not be identical. Equal entries are not always repeated. This continues a long series; more values of the same kind are listed elsewhere.

Tested on: U2OS cells
Experiment: Cell growth assay (IncuCyte confluence over 72 h)
Assay type: cell-based
Parameters: key: % of well area covered by cells (confluence)
Conditions: listed as AN1
Procedure: Cell growth assay: Cell confluence (phase) from RPE1 (hTERT RPE-1, ATCC CLR_4000) or U2OS (ATCC, HTB-96) cell lines were monitored over time with the IncuCyte S3 (Sartiorius, Germany) in 384-well plates in 50 ul DMEM media, supplemented with 10% Fetal Bovine Serum (FBS) 1% penicillin/Streptomycin and incubated 24 h before treatment. Experiment was performed as described in Cano-Franco et al.. […] Cell confluence is represented as % of area covered by cells. Each data point represents the average ratio or confluence obtained from three individual wells of the plate.

## O=C1Nc2ccc(Br)cc2C1=Cc1cc(O)c(O)c(Br)c1 [compound 1]
500 nM, time 0 h
  U2OS cell growth: 27.347 and 27.5739 and 28.04
500 nM, time 2 h
  U2OS cell growth: 28.4326 and 29.582 and 32.162
500 nM, time 4 h
  U2OS cell growth: 29.2474 and 26.4948 and 33.3312
500 nM, time 6 h
  U2OS cell growth: 32.7874 and 38.6315 and 39.1449
500 nM, time 8 h
  U2OS cell growth: 33.7929 and 39.8343 and 34.382
500 nM, time 20 h
  U2OS cell growth: 48.92 and 50.9157 and 50.1778
500 nM, time 22 h
  U2OS cell growth: 55.9888 and 55.3484 and 62.0555
500 nM, time 24 h
  U2OS cell growth: 47.2227 and 55.2266 and 54.3757
500 nM, time 26 h
  U2OS cell growth: 49.5272 and 54.6198 and 58.5467
500 nM, time 28 h
  U2OS cell growth: 56.9543 and 63.078 and 61.4608
500 nM, time 30 h
  U2OS cell growth: 58.5292 and 63.693 and 59.3117
500 nM, time 32 h
  U2OS cell growth: 62.4411 and 66.551 and 61.6048
500 nM, time 34 h
  U2OS cell growth: 60.479 and 64.1848 and 62.5155
500 nM, time 36 h
  U2OS cell growth: 65.4275 and 71.4226 and 66.8445
500 nM, time 38 h
  U2OS cell growth: 70.8575 and 75.2609 and 72.5946
500 nM, time 40 h
  U2OS cell growth: 81.889 and 81.0153 and 84.0964
500 nM, time 42 h
  U2OS cell growth: 77.7551 and 81.5465 and 81.047
500 nM, time 44 h
  U2OS cell growth: 78.7402 and 81.7938 and 75.3931
500 nM, time 46 h
  U2OS cell growth: 77.525 and 72.7035 and 84.9484
500 nM, time 48 h
  U2OS cell growth: 83.6641 and 86.7101 and 87.4273
500 nM, time 50 h
  U2OS cell growth: 78.6715 and 84.6189 and 79.8616
500 nM, time 52 h
  U2OS cell growth: 87.7348 and 89.5251 and 90.4969
500 nM, time 58 h
  U2OS cell growth: 89.3873 and 92.5884 and 92.5474
500 nM, time 64 h
  U2OS cell growth: 94.6631 and 97.2152 and 93.7109
500 nM, time 66 h
  U2OS cell growth: 95.9856 and 97.7723 and 98.2119
500 nM, time 72 h
  U2OS cell growth: 98.5511 and 99.0536 and 99.2748
1 uM, 20 h
  U2OS cell growth: 54.2257 and 53.0051 and 59.2876
1 uM, 22 h
  U2OS cell growth: 58.8643 and 58.4763 and 65.8667
1 uM, 24 h
  U2OS cell growth: 57.0907 and 59.6608 and 67.9515
1 uM, 26 h
  U2OS cell growth: 64.2023 and 64.2101 and 65.5851
1 uM, 28 h
  U2OS cell growth: 65.419 and 63.162 and 74.8274
1 uM, 30 h
  U2OS cell growth: 60.369 and 68.737 and 77.0852
1 uM, 32 h
  U2OS cell growth: 67.7049 and 71.2518 and 77.7088
1 uM, 34 h
  U2OS cell growth: 71.8513 and 71.0617 and 75.8812
1 uM, 36 h
  U2OS cell growth: 72.6487 and 73.5901 and 80.994
1 uM, 38 h
  U2OS cell growth: 81.9334 and 80.4249 and 85.2844
1 uM, 40 h
  U2OS cell growth: 81.4489 and 83.429 and 88.396
1 uM, 42 h
  U2OS cell growth: 85.3648 and 85.8336 and 90.2731
1 uM, 44 h
  U2OS cell growth: 82.2352 and 84.7766 and 90.447
1 uM, 46 h
  U2OS cell growth: 81.1405 and 82.5387 and 84.0104
1 uM, 48 h
  U2OS cell growth: 86.4709 and 90.617 and 92.863
1 uM, 50 h
  U2OS cell growth: 88.9665 and 89.6182 and 90.7793
1 uM, 52 h
  U2OS cell growth: 90.8118 and 91.2949 and 96.0267
1 uM, 54 h
  U2OS cell growth: 87.4646 and 89.9239 and 89.2432
1 uM, 56 h
  U2OS cell growth: 93.2155 and 93.7559 and 96.3918
1 uM, 58 h
  U2OS cell growth: 93.1927 and 93.4527 and 95.8635
1 uM, 60 h
  U2OS cell growth: 96.1131 and 97.2562 and 98.39
1 uM, 62 h
  U2OS cell growth: 96.0348 and 96.9166 and 98.4119
1 uM, 64 h
  U2OS cell growth: 96.0537 and 96.436 and 98.3804
1 uM, 66 h
  U2OS cell growth: 96.9643 and 98.4365 and 98.9885
1 uM, 70 h
  U2OS cell growth: 96.2072 and 98.5971 and 99.4122
1 uM, 72 h
  U2OS cell growth: 98.3341 and 99.3567 and 99.7552
1 uM, time 0 h
  U2OS cell growth: 32.4763 and 36.5565 and 38.7861
1 uM, time 2 h
  U2OS cell growth: 36.9222 and 41.1625 and 40.9365
1 uM, time 4 h
  U2OS cell growth: 33.9856 and 35.2243 and 36.5124
1 uM, time 6 h
  U2OS cell growth: 43.6094 and 41.4578 and 47.4146
1 uM, time 8 h
  U2OS cell growth: 40.8463 and 46.4609 and 50.7157
1 uM, time 20 h
  U2OS cell growth: 64.3933 and 61.6371
1 uM, time 24 h
  U2OS cell growth: 54.8961 and 69.4029 and 64.2675
1 uM, time 26 h
  U2OS cell growth: 65.564 and 69.5964 and 65.815
1 uM, time 28 h
  U2OS cell growth: 65.6118 and 75.7091 and 71.4749
1 uM, time 30 h
  U2OS cell growth: 64.1631 and 77.5361 and 72.8869
1 uM, time 32 h
  U2OS cell growth: 68.1667 and 79.9558 and 76.9482
1 uM, time 34 h
  U2OS cell growth: 64.999 and 72.2296 and 72.6737
1 uM, time 36 h
  U2OS cell growth: 74.4706 and 82.7949 and 79.0155
1 uM, time 38 h
  U2OS cell growth: 74.7751 and 86.8697 and 86.0581
1 uM, time 40 h
  U2OS cell growth: 79.5064 and 89.8162 and 85.2913
1 uM, time 42 h
  U2OS cell growth: 80.0219 and 91.3705 and 88.4688
1 uM, time 44 h
  U2OS cell growth: 81.2116 and 91.8221 and 90.7123
1 uM, time 46 h
  U2OS cell growth: 80.1881 and 86.3683 and 88.1535
1 uM, time 48 h
  U2OS cell growth: 88.6226 and 95.2861 and 92.1604
1 uM, time 50 h
  U2OS cell growth: 84.3172 and 90.9909 and 85.0324
1 uM, time 52 h
  U2OS cell growth: 89.1502 and 97.4295 and 94.744
1 uM, time 54 h
  U2OS cell growth: 87.8552 and 91.4949 and 91.613
1 uM, time 56 h
  U2OS cell growth: 91.9005 and 98.604 and 95.309
1 uM, time 60 h
  U2OS cell growth: 95.5524 and 99.6096 and 97.8118
1 uM, time 62 h
  U2OS cell growth: 95.4867 and 99.6371 and 98.4313
1 uM, time 64 h
  U2OS cell growth: 96.1309 and 99.5949 and 98.2894
1 uM, time 66 h
  U2OS cell growth: 96.3913 and 99.6502 and 98.9666
1 uM, time 68 h
  U2OS cell growth: 96.8805 and 99.7291 and 99.369
1 uM, time 70 h
  U2OS cell growth: 98.9349 and 99.4744 and 98.3444
1 uM, time 72 h
  U2OS cell growth: 98.6602 and 99.9562 and 99.8308
